# Publication PMC3275590
# These are yes or no findings as the source states them, for the method shown. In cells and extracts the contact can be indirect. Binding can be weak; no strength is given. Sequences can lack the tags named with a protein.
# Molecular target: T1, N-terminally triple-FLAG-tagged cytosolic domain of human Sec12 (residues 1–386) (human) (UniProt Q9HCU5)
# T1 sequence: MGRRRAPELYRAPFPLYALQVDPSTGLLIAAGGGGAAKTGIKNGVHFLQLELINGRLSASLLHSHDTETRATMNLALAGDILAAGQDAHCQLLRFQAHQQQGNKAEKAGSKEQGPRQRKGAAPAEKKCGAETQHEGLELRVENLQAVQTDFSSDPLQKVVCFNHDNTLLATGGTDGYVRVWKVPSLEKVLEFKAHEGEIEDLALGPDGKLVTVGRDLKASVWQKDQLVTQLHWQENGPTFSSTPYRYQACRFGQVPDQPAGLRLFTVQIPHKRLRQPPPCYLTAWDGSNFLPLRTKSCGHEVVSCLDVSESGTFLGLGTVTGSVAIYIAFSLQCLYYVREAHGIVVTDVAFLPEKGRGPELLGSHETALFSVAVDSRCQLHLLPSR
# Test: co-IP; HeLa cells co-transfected, lysed 24 h later in 50 mM Tris-HCl pH 7.9, 50 mM NaCl, 0.5% NP-40; IP with anti-FLAG on protein A-agarose overnight at 4°C; washes 20 mM HEPES pH 7.9, 100 mM NaCl, 0.1% NP-40; immunoblot anti-FLAG and anti-GFP
substance,measurement,value
monomeric GFP fused to a C-terminal region of human Sec16A (residues 1909–2332) (domain or fragment),binding,binds weakly
